# From publication PMC4326925
# Sequences of proteins named here, by UniProt entry; tags and fusion partners are left off.
# UniProt P05412, whole entry: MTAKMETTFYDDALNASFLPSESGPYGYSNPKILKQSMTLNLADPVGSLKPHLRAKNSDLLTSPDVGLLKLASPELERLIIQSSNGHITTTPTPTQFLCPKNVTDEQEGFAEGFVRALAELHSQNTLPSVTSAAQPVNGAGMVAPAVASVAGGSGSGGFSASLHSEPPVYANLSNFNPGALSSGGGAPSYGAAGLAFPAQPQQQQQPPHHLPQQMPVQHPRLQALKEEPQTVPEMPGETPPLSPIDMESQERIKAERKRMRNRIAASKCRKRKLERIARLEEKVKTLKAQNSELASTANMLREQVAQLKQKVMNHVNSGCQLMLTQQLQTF
# Construct, isoform or probe ends are uncertain for at least one entry. Where cells or extracts were used, other partners may take part.
# Biological target: c-Jun (human (primary dermal fibroblasts, Lat-A treated)) (UniProt P05412)
# Assay: EMSA coupled with Western blot of excised shifted band
# Settings: nuclear extract of Lat-A treated fibroblasts (30 nM, 24 h), complex abolished by excess unlabeled wild-type AP-1 probe; 5 ug nuclear extract, ~2x10^5 cpm probe, on ice 30 min; 4% polyacrylamide gel in TBE; binding buffer, salt and pH not stated (as in Quan et al., 2001); protein in an extract; label: 5'-32P
sequence,measurement,value
ATAAAGCATGAGTCAGACAGCTC (double strand) [MMP-1 promoter AP-1 probe],binding result,binds
